Measurements reported in the supplement of paper PMC8728848.
The list shows a part of the results.

Columns and labels:
Experiment in all cases: glycan array binding signal (z-score within array); higher = stronger binding
Conditions in all cases: glycan notation: IUPAC condensed, linker removed
[1] = molecular target: Gal(b1-4)GlcNAc(b1-3)Gal(b1-4)GlcNAc(b1-3)Gal(b1-4)GlcNAc(b1-3)Gal(b1-4)GlcNAc(b1-2)Man(a1-3)[Gal(b1-4)GlcNAc(b1-3)Gal(b1-4)GlcNAc(b1-3)Gal(b1-4)GlcNAc(b1-3)Gal(b1-4)GlcNAc(b1-2)Man(a1-6)]Man(b1-4)GlcNAc(b1-4)[Fuc(a1-6)]GlcNAc
Procedure, shortened: (§1)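 Negative Z-scores can be read as non-binding. The Z-score is calculated within each array and then averaged across arrays of one protein sequence at different concentrations or buffers and across linkers. Arrays, 3228 in all, were curated from the Consortium for Functional Glycomics database and kept only where the protein sequence was available.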

[2] = molecular target: Gal(b1-4)GlcNAc(b1-3)Gal(b1-4)GlcNAc(b1-3)Gal(b1-4)GlcNAc(b1-3)Gal(b1-4)GlcNAc(b1-2)[Gal(b1-4)GlcNAc(b1-3)Gal(b1-4)GlcNAc(b1-3)Gal(b1-4)GlcNAc(b1-3)Gal(b1-4)GlcNAc(b1-6)]Man(a1-6)[Gal(b1-4)GlcNAc(b1-3)Gal(b1-4)GlcNAc(b1-3)Gal(b1-4)GlcNAc(b1-3)Gal(b1-4)GlcNAc(b1-2)Man(a1-3)]Man(b1-4)GlcNAc(b1-4)[Fuc(a1-6)]GlcNAc
Procedure, shortened: as §1

[3] = molecular target: Gal(b1-4)GlcNAc(b1-3)Gal(b1-4)GlcNAc(b1-3)Gal(b1-4)GlcNAc(b1-3)Gal(b1-4)GlcNAc(b1-3)Gal(b1-4)GlcNAc(b1-2)Man(a1-3)[Gal(b1-4)GlcNAc(b1-3)Gal(b1-4)GlcNAc(b1-3)Gal(b1-4)GlcNAc(b1-3)Gal(b1-4)GlcNAc(b1-3)Gal(b1-4)GlcNAc(b1-2)Man(a1-6)]Man(b1-4)GlcNAc(b1-4)GlcNAc
Procedure, shortened: as §1

[4] = molecular target: Gal(b1-4)GlcNAc(b1-3)Gal(b1-4)GlcNAc(b1-3)Gal(b1-4)GlcNAc(b1-3)Gal(b1-4)GlcNAc(b1-3)Gal(b1-4)GlcNAc(b1-2)Man(a1-3)[Gal(b1-4)GlcNAc(b1-3)Gal(b1-4)GlcNAc(b1-3)Gal(b1-4)GlcNAc(b1-3)Gal(b1-4)GlcNAc(b1-3)Gal(b1-4)GlcNAc(b1-2)Man(a1-6)]Man(b1-4)GlcNAc(b1-4)[Fuc(a1-6)]GlcNAc
Procedure, shortened: as §1

[5] = molecular target: Gal(b1-4)GlcNAc(b1-3)Gal(b1-4)GlcNAc(b1-3)Gal(b1-4)GlcNAc(b1-3)Gal(b1-4)GlcNAc(b1-3)Gal(b1-4)GlcNAc(b1-2)[Gal(b1-4)GlcNAc(b1-3)Gal(b1-4)GlcNAc(b1-3)Gal(b1-4)GlcNAc(b1-3)Gal(b1-4)GlcNAc(b1-3)Gal(b1-4)GlcNAc(b1-6)]Man(a1-6)[Gal(b1-4)GlcNAc(b1-3)Gal(b1-4)GlcNAc(b1-3)Gal(b1-4)GlcNAc(b1-3)Gal(b1-4)GlcNAc(b1-3)Gal(b1-4)GlcNAc(b1-2)Man(a1-3)]Man(b1-4)GlcNAc(b1-4)[Fuc(a1-6)]GlcNAc
Procedure, shortened: as §1

[6] = molecular target: Gal(b1-4)GlcNAc(b1-3)Gal(b1-4)GlcNAc(b1-3)Gal(b1-4)GlcNAc(b1-3)Gal(b1-4)GlcNAc(b1-3)Gal(b1-4)GlcNAc(b1-3)Gal(b1-4)GlcNAc(b1-2)Man(a1-3)[Gal(b1-4)GlcNAc(b1-3)Gal(b1-4)GlcNAc(b1-3)Gal(b1-4)GlcNAc(b1-3)Gal(b1-4)GlcNAc(b1-3)Gal(b1-4)GlcNAc(b1-3)Gal(b1-4)GlcNAc(b1-2)Man(a1-6)]Man(b1-4)GlcNAc(b1-4)GlcNAc
Procedure, shortened: as §1

[7] = molecular target: Gal(b1-4)GlcNAc(b1-3)Gal(b1-4)GlcNAc(b1-3)GalNAc
Procedure, shortened: as §1

[8] = molecular target: Gal(b1-4)GlcNAc(b1-3)Gal(b1-4)GlcNAc(b1-3)[Gal(b1-4)GlcNAc(b1-3)Gal(b1-4)GlcNAc(b1-6)]GalNAc
Procedure, shortened: as §1

[9] = molecular target: Gal(b1-4)GlcNAc(b1-3)Gal(b1-4)GlcNAc(b1-6)[Gal(b1-3)]GalNAc
Procedure, shortened: as §1

[10] = molecular target: Gal(b1-4)GlcNAc(b1-3)Gal(b1-4)[Fuc(a1-3)]GlcNAc(b1-3)Gal(b1-4)[Fuc(a1-3)]GlcNAc
Procedure, shortened: as §1

[11] = molecular target: Gal(b1-4)GlcNAc(b1-3)GalNAc
Procedure, shortened: as §1

[12] = molecular target: Gal(b1-4)GlcNAc(b1-3)[Fuc(a1-3)GlcNAc(b1-6)]Gal(b1-4)Glc
Procedure, shortened: as §1

[13] = molecular target: Gal(b1-4)GlcNAc(b1-3)[Gal(b1-4)GlcNAc(b1-6)]Gal(b1-4)GlcNAc
Procedure, shortened: as §1

[14] = molecular target: Gal(b1-4)GlcNAc(b1-3)[GlcNAc(b1-6)]Gal(b1-4)GlcNAc
Procedure, shortened: as §1

[15] = molecular target: Gal(b1-4)GlcNAc(b1-6)Gal(b1-4)GlcNAc
Procedure, shortened: as §1

[16] = molecular target: Gal(b1-4)GlcNAc(b1-6)GalNAc
Procedure, shortened: as §1

[17] = molecular target: Gal(b1-4)GlcNAc(b1-6)[Gal(b1-3)]GalNAc
Procedure, shortened: as §1

[18] = molecular target: Gal(b1-4)GlcNAc(b1-6)[Gal(b1-4)GlcNAc(b1-3)]GalNAc
Procedure, shortened: as §1

Gal(b1-4)GlcNAc6P = molecular target: Gal(b1-4)GlcNAc6P
Procedure, shortened: as §1

Gal(b1-6)Gal = molecular target: Gal(b1-6)Gal
Procedure, shortened: as §1

Gal3S(b1-3)GalNAc = molecular target: Gal3S(b1-3)GalNAc
Procedure, shortened: as §1

Gal3S(b1-3)GlcNAc = molecular target: Gal3S(b1-3)GlcNAc
Procedure, shortened: as §1

[19] = molecular target: Gal3S(b1-3)[Fuc(a1-4)]GlcNAc
Procedure, shortened: as §1

Gal3S(b1-4)Glc = molecular target: Gal3S(b1-4)Glc
Procedure, shortened: as §1

Gal3S(b1-4)Glc6S = molecular target: Gal3S(b1-4)Glc6S
Procedure, shortened: as §1

Gal3S(b1-4)GlcNAc = molecular target: Gal3S(b1-4)GlcNAc
Procedure, shortened: as §1

[20] = molecular target: Gal3S(b1-4)[Fuc(a1-3)]Glc6S
Procedure, shortened: as §1

[21] = molecular target: Gal3S(b1-4)[Fuc(a1-3)]GlcNAc
Procedure, shortened: as §1

[22] = molecular target: Gal3S(b1-4)[Fuc(a1-3)]GlcNAc6S
Procedure, shortened: as §1

Gal3S4S(b1-4)GlcNAc = molecular target: Gal3S4S(b1-4)GlcNAc
Procedure, shortened: as §1

Gal3S6S(b1-4)GlcNAc = molecular target: Gal3S6S(b1-4)GlcNAc
Procedure, shortened: as §1

Gal3S6S(b1-4)GlcNAc6S = molecular target: Gal3S6S(b1-4)GlcNAc6S
Procedure, shortened: as §1

Gal4S(b1-4)GlcNAc = molecular target: Gal4S(b1-4)GlcNAc
Procedure, shortened: as §1

Gal4S6S(b1-4)GlcNAc = molecular target: Gal4S6S(b1-4)GlcNAc
Procedure, shortened: as §1

Gal6P(b1-4)GlcNAc = molecular target: Gal6P(b1-4)GlcNAc
Procedure, shortened: as §1

Gal6S(b1-3)GlcNAc = molecular target: Gal6S(b1-3)GlcNAc
Procedure, shortened: as §1

Gal6S(b1-3)GlcNAc6S = molecular target: Gal6S(b1-3)GlcNAc6S
Procedure, shortened: as §1

Gal6S(b1-4)Glc = molecular target: Gal6S(b1-4)Glc
Procedure, shortened: as §1

B1: PX15642A-pgi-501-20-501 (Parabacteroides gingivalis) (protein)
chain: CELDRDPEGKDFQQPYTSFVQTKQNRDGLYALLRNTENPRMHFYQELQSDMYCTTITDGNSLAPFVNWDLGILNDHGRADEDEVSGIAGYYFVYNRLNQQANAFVNNTEAALQNQVYKNSTEIANAKSFLAEGKVLQALAIWRLMDRFSFHESVTEVNSGAKDLGVILLKEYNPGYIGPRATKAQCYDYILSRLSEAIEVLPENRESVLYVSRDYAYALRARIYLALGEYGKAAADAKMVVDKYPLIGAADASEFENIYRSDANNPEIIFRGFASATLGSFTATTLNGAAPAGKDIKYNPSAVPFQWVVDLYENEDFRKSVYIAKVVKKDKGYLVNKFLEDKAYRDVQDKPNLKVGARYFSVAEVYLILVESALQTGDTPTAEKYLKALSKARGAEVSVVNMEALQAERTRELIGEGSRLRDMVRWSIPNNHDAFETQPGLEGFANTTPLKAQAPVGFYAYTWEFPQRDRQTNPQLIKNWPI
[1]
  glycan array binding signal (z-score): 1.34
[2]
  glycan array binding signal (z-score): 0.06
[3]
  glycan array binding signal (z-score): 0.967
[4]
  glycan array binding signal (z-score): 1.21
[5]
  glycan array binding signal (z-score): 1.86
[6]
  glycan array binding signal (z-score): 0.357
[7]
  glycan array binding signal (z-score): -0.65
[8]
  glycan array binding signal (z-score): 0.622
[9]
  glycan array binding signal (z-score): 2.71
[10]
  glycan array binding signal (z-score): -0.305
[11]
  glycan array binding signal (z-score): -0.504
[12]
  glycan array binding signal (z-score): 0.044
[13]
  glycan array binding signal (z-score): -0.518
[14]
  glycan array binding signal (z-score): 0.18
[15]
  glycan array binding signal (z-score): -0.968
[16]
  glycan array binding signal (z-score): 0.273
[17]
  glycan array binding signal (z-score): 0.642
[18]
  glycan array binding signal (z-score): 0.257
Gal(b1-4)GlcNAc6P
  glycan array binding signal (z-score): -0.285
Gal(b1-6)Gal
  glycan array binding signal (z-score): -0.127
Gal3S(b1-3)GalNAc
  glycan array binding signal (z-score): 0.092
Gal3S(b1-3)GlcNAc
  glycan array binding signal (z-score): 0.258
[19]
  glycan array binding signal (z-score): -1.01
Gal3S(b1-4)Glc
  glycan array binding signal (z-score): 0.744
Gal3S(b1-4)Glc6S
  glycan array binding signal (z-score): -0.055
Gal3S(b1-4)GlcNAc
  glycan array binding signal (z-score): 0.229
[20]
  glycan array binding signal (z-score): 0.875
[21]
  glycan array binding signal (z-score): -0.713
[22]
  glycan array binding signal (z-score): 0.301
Gal3S4S(b1-4)GlcNAc
  glycan array binding signal (z-score): -0.041
Gal3S6S(b1-4)GlcNAc
  glycan array binding signal (z-score): 0.098
Gal3S6S(b1-4)GlcNAc6S
  glycan array binding signal (z-score): 0.761
Gal4S(b1-4)GlcNAc
  glycan array binding signal (z-score): -0.028
Gal4S6S(b1-4)GlcNAc
  glycan array binding signal (z-score): 0.294
Gal6P(b1-4)GlcNAc
  glycan array binding signal (z-score): -0.543
Gal6S(b1-3)GlcNAc
  glycan array binding signal (z-score): 0.549
Gal6S(b1-3)GlcNAc6S
  glycan array binding signal (z-score): 0.484
Gal6S(b1-4)Glc
  glycan array binding signal (z-score): -0.221
